Source: patent US7531320B2, “Modulation of β-catenin/TCF-activated transcription” (priority 2003, dated 2009)
Some entries share one result that the patent states for a list of compounds. At least one compound was matched to its structure with a doubt left.

Assay: Bioavailability study in mouse
Format: in vivo
Details: i.v and p.o, 10 mg/kg, 20% Tween 80
Experimental: Bioavailability of COMPOUND 3, COMPOUND 4 and COMPOUND 5 was studied in mouse and rat. All the compounds were administered (i.v and p.o, 10 mg/kg) using the same vehicle (i.e., 20% Tween 80).

Row | Compound | Bioavailability
1 | CN1CC(=O)N2C(Cc3ccc(O)cc3)C(=O)N(Cc3cccc4ccccc34)CC2N1C(=O)NCc1ccccc1 (centres unmarked) [COMPOUND 3] | below 2%
2 | CN1CC(=O)N2C(Cc3ccc(O)cc3)C(=O)N(Cc3cccc4cccnc34)CC2N1C(=O)NCc1ccccc1 (centres unmarked) [COMPOUND 4] | below 2%
